The values below come from patent US20230183325.

Protein sequences, listed by entry. Tags and fused reporters are not part of them. Residues count along the entry.
UniProt P01024, 672-748: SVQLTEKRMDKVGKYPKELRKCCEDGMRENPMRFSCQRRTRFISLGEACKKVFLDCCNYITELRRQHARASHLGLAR

For some assays here: Construct, isoform or probe ends are uncertain for at least one entry. For some assays here: Where a protein sequence is shown, tags need not be part of it.

Data set [1] concerns the target T1, C5a (complement anaphylatoxin C5a) (Homo sapiens) (UniProt P01031).
T1 sequence: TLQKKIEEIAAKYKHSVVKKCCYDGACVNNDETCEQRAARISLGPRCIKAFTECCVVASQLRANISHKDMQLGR
The data set is described as follows: activity in cells. Conditions: L-RNA/L-DNA (mirror-image); L-deoxy at dU7, dG14, dA15, dU28, dU30, dC38, remaining positions L-RNA; C5a 0.1 ug/ml, aptamer 1 ug/ml, 24 h, human corneal keratocytes; 2 ug/ml 33%, 3 ug/ml 29%, 5 ug/ml 34%, all p<0.001; functional inhibition, direct binding not measured; mirror-image nucleic acid; scale: % aSMA-positive cells.

The target in data set [2] is C3a (complement anaphylatoxin C3a) (Homo sapiens) (UniProt P01024). In words: activity in cells. Conditions: L-RNA/L-DNA (mirror-image); L-deoxy at dU7, dG14, dA15, dU28, dU30, dC38, remaining positions L-RNA; C3a 0.1 ug/ml, aptamer 3 ug/ml (p=0.017), 24 h, human corneal keratocytes; 1 ug/ml 65% and 2 ug/ml 55% not significant, 5 ug/ml 51% (p=0.017); aptamer raised to C5a; mirror-image nucleic acid; scale: % aSMA-positive cells.

With “GCGAUGUGGUGGUGAAGGGUUGUUGGGUGUCGACGCACGC [C5a aptamer (L-RNA/L-DNA)]”, the functional effect of the aptamer is 31 in data set [1] and 47 in data set [2].
